Measured values published in the supplement of paper PMC8728848.
The other results are listed elsewhere or left out.

Tests used:
Assay in all cases: glycan array binding signal (z-score within array); higher = stronger binding
Conditions in all cases: glycan notation: IUPAC condensed, linker removed; mutation: H213R,G256S
[1] = target: Fuc(b1-3)GlcNAc
Procedure, shortened: (§1)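 Negative Z-scores can be read as non-binding. The Z-score is calculated within each array and then averaged across arrays of one protein sequence at different concentrations or buffers and across linkers. Arrays, 3228 in all, were curated from the Consortium for Functional Glycomics database and kept only where the protein sequence was available.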

[2] = target: Gal(a1-2)Gal
Procedure, shortened: as §1

[3] = target: Gal(a1-3)Gal
Procedure, shortened: as §1

[4] = target: Gal(a1-3)Gal(b1-3)GlcNAc
Procedure, shortened: as §1

[5] = target: Gal(a1-3)Gal(b1-4)Glc
Procedure, shortened: as §1

[6] = target: Gal(a1-3)Gal(b1-4)GlcNAc
Procedure, shortened: as §1

[7] = target: Gal(a1-3)Gal(b1-4)[Fuc(a1-3)]GlcNAc
Procedure, shortened: as §1

[8] = target: Gal(a1-3)GalNAc
Procedure, shortened: as §1

[9] = target: Gal(a1-3)[Gal(a1-4)]Gal(b1-4)GlcNAc
Procedure, shortened: as §1

[10] = target: Gal(a1-4)Gal(b1-4)Glc
Procedure, shortened: as §1

[11] = target: Gal(a1-4)Gal(b1-4)GlcNAc
Procedure, shortened: as §1

[12] = target: Gal(a1-4)GlcNAc
Procedure, shortened: as §1

[13] = target: Gal(a1-6)Glc
Procedure, shortened: as §1

[14] = target: Gal(b1-2)Gal
Procedure, shortened: as §1

[15] = target: Gal(b1-3)Gal
Procedure, shortened: as §1

[16] = target: Gal(b1-3)GalNAc
Procedure, shortened: as §1

[17] = target: Gal(b1-3)GalNAc(b1-3)Gal(a1-4)Gal(b1-4)Glc
Procedure, shortened: as §1

[18] = target: Gal(b1-3)GalNAc(b1-4)Gal(b1-4)Glc
Procedure, shortened: as §1

[19] = target: Gal(b1-3)GalNAc(b1-4)[Neu5Ac(a2-3)]Gal(b1-4)Glc
Procedure, shortened: as §1

[20] = target: Gal(b1-3)GlcNAc
Procedure, shortened: as §1

[21] = target: Gal(b1-3)GlcNAc(b1-3)Gal(b1-3)GlcNAc
Procedure, shortened: as §1

[22] = target: Gal(b1-3)GlcNAc(b1-3)Gal(b1-4)Glc
Procedure, shortened: as §1

[23] = target: Gal(b1-3)GlcNAc(b1-3)Gal(b1-4)GlcNAc
Procedure, shortened: as §1

[24] = target: Gal(b1-3)[Fuc(a1-4)]GlcNAc
Procedure, shortened: as §1

[25] = target: Gal(b1-3)[Fuc(a1-4)]GlcNAc(b1-3)Gal(b1-3)[Fuc(a1-4)]GlcNAc
Procedure, shortened: as §1

[26] = target: Gal(b1-3)[Fuc(a1-4)]GlcNAc(b1-3)Gal(b1-4)GlcNAc
Procedure, shortened: as §1

[27] = target: Gal(b1-3)[Fuc(a1-4)]GlcNAc(b1-3)Gal(b1-4)[Fuc(a1-3)]GlcNAc
Procedure, shortened: as §1

[28] = target: Gal(b1-3)[GlcNAc(b1-6)]GalNAc
Procedure, shortened: as §1

[29] = target: Gal(b1-3)[Neu5Ac(a2-6)]GalNAc
Procedure, shortened: as §1

[30] = target: Gal(b1-3)[Neu5Ac(a2-6)]GlcNAc(b1-6)Gal(b1-4)Glc
Procedure, shortened: as §1

[31] = target: Gal(b1-3)[Neu5Ac(b2-6)]GalNAc
Procedure, shortened: as §1

[32] = target: Gal(b1-4)GalNAc(a1-3)[Fuc(a1-2)]Gal(b1-4)GlcNAc
Procedure, shortened: as §1

[33] = target: Gal(b1-4)GalNAc(b1-3)[Fuc(a1-2)]Gal(b1-4)GlcNAc
Procedure, shortened: as §1

[34] = target: Gal(b1-4)Glc
Procedure, shortened: as §1

[35] = target: Gal(b1-4)Glc6S
Procedure, shortened: as §1

[36] = target: Gal(b1-4)GlcNAc
Procedure, shortened: as §1

[37] = target: Gal(b1-4)GlcNAc(b1-2)Man(a1-3)[Gal(b1-4)GlcNAc(b1-2)Man(a1-6)]Man(b1-4)GlcNAc(b1-4)GlcNAc
Procedure, shortened: as §1

[38] = target: Gal(b1-4)GlcNAc(b1-3)Gal(b1-3)GlcNAc
Procedure, shortened: as §1

[39] = target: Gal(b1-4)GlcNAc(b1-3)Gal(b1-4)Glc
Procedure, shortened: as §1

[40] = target: Gal(b1-4)GlcNAc(b1-3)Gal(b1-4)GlcNAc
Procedure, shortened: as §1

[41] = target: Gal(b1-4)GlcNAc(b1-3)Gal(b1-4)GlcNAc(b1-3)Gal(b1-4)GlcNAc
Procedure, shortened: as §1

[42] = target: Gal(b1-4)GlcNAc(b1-3)Gal(b1-4)[Fuc(a1-3)]GlcNAc(b1-3)Gal(b1-4)[Fuc(a1-3)]GlcNAc
Procedure, shortened: as §1

[43] = target: Gal(b1-4)GlcNAc(b1-3)GalNAc
Procedure, shortened: as §1

[44] = target: Gal(b1-4)GlcNAc(b1-3)[Gal(b1-4)GlcNAc(b1-6)]GalNAc
Procedure, shortened: as §1

[45] = target: Gal(b1-4)GlcNAc(b1-6)Gal(b1-4)GlcNAc(b1-6)GalNAc
Procedure, shortened: as §1

B1: CD23 (Homo sapiens) (protein)
chain: MELQVSSGFVCNTCPEKWINFQRKCYYFGKGTKQWVHARYACDDMEGQLVSIHSPEEQDFLTKRASHTGSWIGLRNLDLKGEFIWVDGSHVDYSNWAPGEPTSRSQSEDCVMMRGSGRWNDAFCDRKLGAWVCDRLATCTPPASEGSAESMGPDSRPDPDGRLPTPSAPLHS
[1]
  glycan array binding signal (z-score): -0.08
[2]
  glycan array binding signal (z-score): -0.069
[3]
  glycan array binding signal (z-score): 0.091
[4]
  glycan array binding signal (z-score): -0.532
[5]
  glycan array binding signal (z-score): -0.051
[6]
  glycan array binding signal (z-score): 0.01
[7]
  glycan array binding signal (z-score): -0.416
[8]
  glycan array binding signal (z-score): 0.006
[9]
  glycan array binding signal (z-score): 0.271
[10]
  glycan array binding signal (z-score): -0.15
[11]
  glycan array binding signal (z-score): -0.223
[12]
  glycan array binding signal (z-score): 0.434
[13]
  glycan array binding signal (z-score): -0.039
[14]
  glycan array binding signal (z-score): -0.096
[15]
  glycan array binding signal (z-score): -0.106
[16]
  glycan array binding signal (z-score): -0.152
[17]
  glycan array binding signal (z-score): -0.145
[18]
  glycan array binding signal (z-score): 0.064
[19]
  glycan array binding signal (z-score): -0.112
[20]
  glycan array binding signal (z-score): -0.167
[21]
  glycan array binding signal (z-score): -0.282
[22]
  glycan array binding signal (z-score): -0.418
[23]
  glycan array binding signal (z-score): -0.144
[24]
  glycan array binding signal (z-score): 0
[25]
  glycan array binding signal (z-score): 0.255
[26]
  glycan array binding signal (z-score): -0.528
[27]
  glycan array binding signal (z-score): -0.654
[28]
  glycan array binding signal (z-score): -0.353
[29]
  glycan array binding signal (z-score): -0.284
[30]
  glycan array binding signal (z-score): -0.248
[31]
  glycan array binding signal (z-score): -0.394
[32]
  glycan array binding signal (z-score): -0.433
[33]
  glycan array binding signal (z-score): 0.159
[34]
  glycan array binding signal (z-score): -0.429
[35]
  glycan array binding signal (z-score): -0.283
[36]
  glycan array binding signal (z-score): -0.351
[37]
  glycan array binding signal (z-score): -0.433
[38]
  glycan array binding signal (z-score): 0.056
[39]
  glycan array binding signal (z-score): -0.657
[40]
  glycan array binding signal (z-score): -0.477
[41]
  glycan array binding signal (z-score): -0.341
[42]
  glycan array binding signal (z-score): 0.162
[43]
  glycan array binding signal (z-score): -0.481
[44]
  glycan array binding signal (z-score): -0.287
[45]
  glycan array binding signal (z-score): -0.27
